Laboratory results reported in paper PMC9355967.
Results are given in words; binding and its absence hold for the method and conditions named. Binding seen in cells or lysates may run through a third protein. These calls come from enrichment with a bait or labelling near it, and not all partners need be listed.

Protein sequences, listed by entry. Tags and fused reporters are not part of them.
UniProt Q9QZQ1: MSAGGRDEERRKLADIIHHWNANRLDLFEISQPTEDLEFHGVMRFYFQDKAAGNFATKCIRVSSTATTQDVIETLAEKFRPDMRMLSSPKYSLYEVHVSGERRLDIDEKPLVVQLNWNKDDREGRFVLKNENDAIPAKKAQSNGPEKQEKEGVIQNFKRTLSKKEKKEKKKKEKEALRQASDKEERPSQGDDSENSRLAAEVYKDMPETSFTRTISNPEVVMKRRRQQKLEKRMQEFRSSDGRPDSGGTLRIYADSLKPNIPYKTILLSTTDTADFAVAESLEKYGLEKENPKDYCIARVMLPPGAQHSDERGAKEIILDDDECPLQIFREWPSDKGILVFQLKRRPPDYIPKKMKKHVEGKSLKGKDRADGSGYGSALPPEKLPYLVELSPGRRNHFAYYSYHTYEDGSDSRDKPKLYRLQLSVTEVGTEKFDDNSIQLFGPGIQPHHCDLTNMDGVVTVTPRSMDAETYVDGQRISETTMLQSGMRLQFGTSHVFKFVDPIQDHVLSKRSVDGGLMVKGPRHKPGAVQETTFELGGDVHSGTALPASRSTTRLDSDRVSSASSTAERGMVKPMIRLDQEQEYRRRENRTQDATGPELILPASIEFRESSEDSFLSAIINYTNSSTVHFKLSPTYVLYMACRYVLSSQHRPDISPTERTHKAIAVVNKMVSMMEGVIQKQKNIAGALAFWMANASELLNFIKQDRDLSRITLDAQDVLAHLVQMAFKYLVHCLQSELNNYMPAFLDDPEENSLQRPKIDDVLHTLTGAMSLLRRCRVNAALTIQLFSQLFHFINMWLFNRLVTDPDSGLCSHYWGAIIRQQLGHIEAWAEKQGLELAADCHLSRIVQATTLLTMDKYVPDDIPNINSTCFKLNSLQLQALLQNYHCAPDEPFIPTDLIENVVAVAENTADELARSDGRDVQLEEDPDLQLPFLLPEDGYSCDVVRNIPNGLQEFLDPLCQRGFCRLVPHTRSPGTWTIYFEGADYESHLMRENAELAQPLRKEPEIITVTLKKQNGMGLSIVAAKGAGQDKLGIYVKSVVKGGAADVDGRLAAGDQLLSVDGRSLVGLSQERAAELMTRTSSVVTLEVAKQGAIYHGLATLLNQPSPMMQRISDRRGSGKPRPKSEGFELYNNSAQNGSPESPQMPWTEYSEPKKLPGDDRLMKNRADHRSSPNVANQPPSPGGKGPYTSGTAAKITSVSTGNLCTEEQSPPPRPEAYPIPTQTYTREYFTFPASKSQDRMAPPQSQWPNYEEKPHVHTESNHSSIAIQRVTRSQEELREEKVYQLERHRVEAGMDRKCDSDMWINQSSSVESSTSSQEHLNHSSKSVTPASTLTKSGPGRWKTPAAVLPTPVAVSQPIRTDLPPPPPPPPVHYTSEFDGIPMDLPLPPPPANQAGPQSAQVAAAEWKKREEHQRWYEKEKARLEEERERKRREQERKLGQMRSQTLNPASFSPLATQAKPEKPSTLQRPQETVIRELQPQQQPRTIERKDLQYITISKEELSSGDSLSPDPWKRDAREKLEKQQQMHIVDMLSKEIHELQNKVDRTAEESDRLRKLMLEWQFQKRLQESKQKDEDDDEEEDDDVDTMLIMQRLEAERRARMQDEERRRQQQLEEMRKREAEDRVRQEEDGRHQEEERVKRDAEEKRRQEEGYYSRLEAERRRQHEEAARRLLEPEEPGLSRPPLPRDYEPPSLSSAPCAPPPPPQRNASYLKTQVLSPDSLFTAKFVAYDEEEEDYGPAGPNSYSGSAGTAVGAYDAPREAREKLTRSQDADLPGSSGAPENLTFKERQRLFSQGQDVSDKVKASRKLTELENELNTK
UniProt Q8TDM6: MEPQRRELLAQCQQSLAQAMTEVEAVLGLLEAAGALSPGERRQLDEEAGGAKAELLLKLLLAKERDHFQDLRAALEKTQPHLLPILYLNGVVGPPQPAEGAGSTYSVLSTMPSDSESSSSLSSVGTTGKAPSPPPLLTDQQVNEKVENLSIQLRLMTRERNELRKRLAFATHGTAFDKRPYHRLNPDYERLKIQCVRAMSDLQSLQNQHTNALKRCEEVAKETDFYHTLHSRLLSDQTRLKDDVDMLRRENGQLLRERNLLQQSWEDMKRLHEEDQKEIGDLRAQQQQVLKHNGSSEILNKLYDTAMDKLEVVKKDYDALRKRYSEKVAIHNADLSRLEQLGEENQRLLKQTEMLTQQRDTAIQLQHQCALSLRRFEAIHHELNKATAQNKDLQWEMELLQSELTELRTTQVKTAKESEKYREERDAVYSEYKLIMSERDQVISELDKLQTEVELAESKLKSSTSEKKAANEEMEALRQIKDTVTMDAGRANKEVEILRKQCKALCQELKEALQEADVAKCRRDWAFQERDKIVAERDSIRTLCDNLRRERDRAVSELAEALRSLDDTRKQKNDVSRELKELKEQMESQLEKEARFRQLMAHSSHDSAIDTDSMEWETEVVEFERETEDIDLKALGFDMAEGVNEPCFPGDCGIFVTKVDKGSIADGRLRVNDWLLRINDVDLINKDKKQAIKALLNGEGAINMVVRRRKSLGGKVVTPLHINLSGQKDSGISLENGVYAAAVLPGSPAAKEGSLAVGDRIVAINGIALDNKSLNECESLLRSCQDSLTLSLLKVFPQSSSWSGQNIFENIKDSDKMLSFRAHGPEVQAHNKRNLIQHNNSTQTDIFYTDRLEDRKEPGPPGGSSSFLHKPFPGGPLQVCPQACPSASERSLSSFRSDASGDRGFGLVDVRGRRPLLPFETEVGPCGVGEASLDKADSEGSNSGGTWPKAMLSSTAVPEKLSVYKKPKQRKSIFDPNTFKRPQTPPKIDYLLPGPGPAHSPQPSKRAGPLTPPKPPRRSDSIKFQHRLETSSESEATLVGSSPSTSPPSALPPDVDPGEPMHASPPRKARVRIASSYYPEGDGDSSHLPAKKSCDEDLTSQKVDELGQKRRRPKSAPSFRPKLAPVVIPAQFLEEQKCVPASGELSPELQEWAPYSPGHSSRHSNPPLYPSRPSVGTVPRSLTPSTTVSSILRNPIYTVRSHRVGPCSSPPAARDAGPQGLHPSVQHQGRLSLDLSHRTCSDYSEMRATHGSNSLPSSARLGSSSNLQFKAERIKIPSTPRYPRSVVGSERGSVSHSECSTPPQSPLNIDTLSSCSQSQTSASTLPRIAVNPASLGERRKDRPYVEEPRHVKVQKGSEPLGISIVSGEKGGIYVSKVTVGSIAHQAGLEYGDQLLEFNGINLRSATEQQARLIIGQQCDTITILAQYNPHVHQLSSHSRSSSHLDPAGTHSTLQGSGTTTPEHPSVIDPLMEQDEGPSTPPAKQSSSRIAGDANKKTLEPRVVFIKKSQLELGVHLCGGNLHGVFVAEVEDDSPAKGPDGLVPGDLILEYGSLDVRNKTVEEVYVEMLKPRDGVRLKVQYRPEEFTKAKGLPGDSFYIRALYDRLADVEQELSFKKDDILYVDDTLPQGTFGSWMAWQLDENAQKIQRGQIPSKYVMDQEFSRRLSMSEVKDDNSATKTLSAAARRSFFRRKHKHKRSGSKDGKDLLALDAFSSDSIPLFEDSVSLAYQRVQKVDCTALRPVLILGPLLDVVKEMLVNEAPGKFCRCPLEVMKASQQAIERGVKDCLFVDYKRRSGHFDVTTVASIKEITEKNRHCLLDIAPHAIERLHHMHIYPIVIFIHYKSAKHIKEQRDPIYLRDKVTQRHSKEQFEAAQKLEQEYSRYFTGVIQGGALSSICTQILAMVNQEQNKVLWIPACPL
UniProt Q14160: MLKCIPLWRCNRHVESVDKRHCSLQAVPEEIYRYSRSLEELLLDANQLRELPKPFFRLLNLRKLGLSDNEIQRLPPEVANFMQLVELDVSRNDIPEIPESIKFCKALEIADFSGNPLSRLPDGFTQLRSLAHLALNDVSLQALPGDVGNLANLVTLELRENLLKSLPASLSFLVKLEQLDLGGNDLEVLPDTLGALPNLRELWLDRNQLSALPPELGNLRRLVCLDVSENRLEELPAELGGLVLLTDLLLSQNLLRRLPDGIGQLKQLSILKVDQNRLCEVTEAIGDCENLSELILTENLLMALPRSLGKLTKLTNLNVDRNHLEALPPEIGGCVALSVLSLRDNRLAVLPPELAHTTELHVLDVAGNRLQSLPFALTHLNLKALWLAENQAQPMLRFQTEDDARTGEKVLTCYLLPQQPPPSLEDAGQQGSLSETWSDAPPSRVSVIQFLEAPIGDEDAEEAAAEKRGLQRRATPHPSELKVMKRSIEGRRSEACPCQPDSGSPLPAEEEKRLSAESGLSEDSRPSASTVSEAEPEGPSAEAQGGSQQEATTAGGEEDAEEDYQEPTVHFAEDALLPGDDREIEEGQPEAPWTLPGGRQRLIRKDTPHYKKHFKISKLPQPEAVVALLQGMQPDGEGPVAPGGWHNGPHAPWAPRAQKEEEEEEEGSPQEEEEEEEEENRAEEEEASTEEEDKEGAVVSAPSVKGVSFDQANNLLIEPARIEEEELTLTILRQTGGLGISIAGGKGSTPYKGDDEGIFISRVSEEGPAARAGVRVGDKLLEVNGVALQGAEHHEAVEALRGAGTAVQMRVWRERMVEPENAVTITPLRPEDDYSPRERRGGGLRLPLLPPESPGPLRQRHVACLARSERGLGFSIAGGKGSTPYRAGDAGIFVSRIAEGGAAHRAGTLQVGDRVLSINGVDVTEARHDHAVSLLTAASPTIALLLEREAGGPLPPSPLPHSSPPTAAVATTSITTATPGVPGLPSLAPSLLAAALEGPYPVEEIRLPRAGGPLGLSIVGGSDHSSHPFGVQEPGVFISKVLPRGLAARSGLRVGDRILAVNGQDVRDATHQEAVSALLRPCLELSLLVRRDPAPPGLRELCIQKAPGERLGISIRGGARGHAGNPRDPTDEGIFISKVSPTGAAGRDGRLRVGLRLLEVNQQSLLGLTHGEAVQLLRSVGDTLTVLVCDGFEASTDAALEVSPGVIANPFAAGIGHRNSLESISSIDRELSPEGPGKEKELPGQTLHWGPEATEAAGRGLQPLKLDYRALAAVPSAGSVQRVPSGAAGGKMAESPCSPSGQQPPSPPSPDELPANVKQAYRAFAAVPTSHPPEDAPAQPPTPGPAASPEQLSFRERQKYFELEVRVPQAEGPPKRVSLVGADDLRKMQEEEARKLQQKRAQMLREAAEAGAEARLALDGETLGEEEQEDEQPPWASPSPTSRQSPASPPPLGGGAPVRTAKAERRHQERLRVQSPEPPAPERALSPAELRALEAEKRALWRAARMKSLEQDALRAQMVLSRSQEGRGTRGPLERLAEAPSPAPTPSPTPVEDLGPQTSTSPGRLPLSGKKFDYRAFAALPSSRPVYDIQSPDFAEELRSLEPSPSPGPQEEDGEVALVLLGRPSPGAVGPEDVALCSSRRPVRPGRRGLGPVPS

Target: BirA*/FLAG-tagged AFDN iso1 (l-AFDN) (mouse) (UniProt Q9QZQ1)
Test: proximity labelling; BioID in HeLa Flp-In T-REx cells with BirA*/FLAG-AFDN baits; 24 h with 1 μg/ml tetracycline and 50 µM biotin; streptavidin-sepharose purification, mass spectrometry, SAINTexpress FDR ≤ 0.01

Substance	binding
Discs Large Homolog 5 (DLG5), BioID prey (from UniProt Q8TDM6 1-1919)	binds
endogenous SCRIB of HeLa cells (BioID prey) (from UniProt Q14160 1-1655)	binds
